# Source: PubChem BioAssay AID540276 (National Center for Advancing Translational Sciences (NCATS), 2011)
# The whole screen tested about 300,000 compounds, of which about 5,400 (1.8%) were called active. Inconclusive results, whose numbers are uncertain, are shown with a selection of clear calls. Calls follow the shape of the full dose curve; tested in HEK293 cells. Potencies of inconclusive entries are doubtful fits and often do not repeat.
# Assay: qHTS for inhibitors of binding or entry into cells for Marburg Virus
# Conditions: Marburg virus pseudotyped entry inhibition, cell reporter; series mostly up to 37.8 µM
# Potency is read from the fitted curve at half-maximal effect.
row,SMILES,Potency
1,CC(=O)Nc1ccc2nc(SCCOc3ccc(C)cc3)sc2c1,"inconclusive: 0.562 µM [inhibitor, full curve, poor fit]"
2,COc1ccc(CSc2nc(C)cc(=O)[nH]2)cc1,"inconclusive: 0.282 µM [activator, full curve, poor fit]"
3,Cc1cccc(NC(=O)c2cccc(N3C(=O)C4C5C=CC(C6CC56)C4C3=O)c2)c1 (configuration not stated),"inconclusive: 11.2 µM [inhibitor, single point]"
4,CC(=O)C1=C(C)NC(SCC(=O)Nc2nc3ccccc3s2)=C(C#N)C1c1ccc(Cl)cc1 (configuration not stated),inactive
5,O=C(CCl)NNC(=O)c1c(O)c2ccccc2[nH]c1=O,inactive
6,O=C(CSc1n[nH]c(=O)n1C1CC1)Nc1ccc(F)c([N+](=O)[O-])c1,"inconclusive: 1.26 µM [inhibitor, single point]"
7,CNC(=S)NNC(=O)Cc1ccccc1,inactive
8,CC1(c2ccccc2)NC(=O)N(CC(=O)Nc2cc(C(F)(F)F)ccc2N2CCCCC2)C1=O (configuration not stated),"inconclusive: 17.8 µM [inhibitor, partial curve, poor fit]"
9,CC(=O)c1cccc(-n2nnnc2SCC(=O)Nc2ccccc2N2CCCCC2)c1,active: 11.2 µM
10,Cc1ccnn1CC(=O)N/N=C/c1ccco1,inactive
11,Cc1ccc(S(=O)(=O)N(C)C)cc1NC(=O)CN1CCN(Cc2ccccc2)CC1,"inconclusive: 5.01 µM [inhibitor, full curve, poor fit]"
12,Cc1cccnc1NC(=O)c1ccc(Cl)c(S(=O)(=O)N2CCCCC2)c1,inactive
13,COc1cc2c(cc1OC)CN(c1ccc(C(F)(F)F)cn1)CC2,"inconclusive: 35.5 µM [inhibitor, single point]"
14,O=[N+]([O-])c1ccc(COn2nnc3ccccc32)cc1,inactive
15,CCOC(=O)c1cccc(NC(=O)c2ccc(-n3cnnn3)cc2)c1,inactive
16,COc1ccc(-c2nc3ccccc3n2Cc2ccc(C(C)C)cc2)cc1,"inconclusive: 22.4 µM [inhibitor, single point]"
17,COc1cc(C2C3=C(COC3=O)Oc3cc4c(cc32)OCO4)cc(OC)c1O (configuration not stated),"inconclusive: 0.112 µM [inhibitor, full curve, poor fit]"
18,CCOc1ccc2nc3c(cc2c1)CN(CCOC)C(=NCCOC)S3,"inconclusive: 35.5 µM [inhibitor, single point]"
19,CCN(C(=O)COC(=O)/C=C/c1ccc(S(=O)(=O)N2CCc3ccccc32)cc1)C1CCS(=O)(=O)C1 (configuration not stated),"inconclusive: 12.6 µM [inhibitor, partial curve, poor fit]"
20,CC(C)CNC(=O)c1cc([N+](=O)[O-])ccc1N1CCOCC1,inactive
21,CC[C@@H]1CCCCN1c1nc(-c2ccncc2)nc2ccccc12,active: 9.2 µM
22,CCOC(=O)NC1(NCc2ccccc2)Oc2ccccc2O1,"inconclusive: 11.6 µM [inhibitor, partial curve, poor fit]"
23,COc1ccc(C(=O)Nn2c(SCC(=O)NCc3ccco3)nc3ccccc3c2=O)cc1,active: 0.398 µM
24,COc1ccc(/C=N/Nc2cc(OC)ncn2)cc1,"inconclusive: 8.91 µM [inhibitor, partial curve, poor fit]"

row,SMILES,Potency
1,Cc1ccc(-c2nnn(CC(=O)N(c3ccccc3)C(C(=O)NCC3CCCO3)c3cccs3)n2)o1 (configuration not stated),inactive
2,OC1/C(=C/c2ccccc2F)N2CCC1CC2 (configuration not stated),"inconclusive: 14.1 µM [activator, single point]"
3,O=c1[nH]c(=O)n(CCc2ccccc2)c(O)c1C=NCCN1CCNCC1,"inconclusive: 1.12 µM [inhibitor, single point]"
4,O=C(Nc1ccc(S(=O)(=O)N2CCCC2)cc1)c1ccc2c(=O)n3c(nc2c1)CCCCC3,active: 2.51 µM
5,CC1C(c2ccccc2)=[N+]([O-])C2(CCCCC2)N1O (configuration not stated),"inconclusive: 25.1 µM [activator, single point]"
6,Cc1cc(OCC(=O)N2CCCN(C)CC2)ccc1Cl,inactive
7,O=C(c1ccccc1)c1c(O)cc(-c2ccccc2)oc1=O,inactive
8,Cc1ccsc1C(=O)N(c1nc2ccccc2s1)c1c(C)cccc1C,"inconclusive: 11.2 µM [inhibitor, partial curve, poor fit]"
9,O=C(NC1CCSc2ccccc21)c1ccc(F)cc1 (configuration not stated),"inconclusive: 31.6 µM [inhibitor, single point]"
10,Cc1cccn2c(=O)c3cc(C(=O)NCC4CCCO4)c(=N)n(Cc4ccc(F)cc4)c3nc12 (configuration not stated),"inconclusive: 35.5 µM [inhibitor, partial curve, poor fit]"
11,COCCNC(=O)CSc1nc2ccc(N3CCOCC3)cc2c(=O)n1CCc1ccccc1,inactive
12,Cc1ccc(-c2noc(CN3CCOCC3)n2)cc1,inactive
13,COc1ccc(CCNC(=O)c2cnn(-c3ccc(C)c(C)c3)c2NC(=O)c2ccco2)cc1OC,"inconclusive: 6.51 µM [inhibitor, partial curve, poor fit]"
14,CC(C)(CNC(=O)c1cccc(S(=O)(=O)Nc2ccc(Br)cc2)c1)N1CCOCC1,"inconclusive: 15.8 µM [inhibitor, single point]"
15,Cc1ccc(C(=O)COc2ccccc2C(=O)Nc2ccccc2)cc1,"inconclusive: 11.6 µM [inhibitor, partial curve, poor fit]"
16,CC(C)(C)N1CC2(c3ccccc3)CN(C(C)(C)C)CC(c3ccccc3)(C1)C2=O,"inconclusive: 10.3 µM [activator, partial curve]"
17,Cc1ccc(C(C)C)c(OCC(=O)N/N=C2\CC(=O)CC(C)(C)C2)c1,"inconclusive: 10 µM [inhibitor, partial curve]"
18,O=C(c1cc(COc2cccc(C(F)(F)F)c2)on1)N1C[C@@H]2CCC[C@H]1C2,inactive
19,CC(=Nc1ccccc1)C1=C(O)C(Cc2ccccc2)NC1=O (configuration not stated),inactive
20,CC(C)NC(=O)c1ccc(COc2cc(Cl)ccc2Cl)o1,"inconclusive: 28.2 µM [inhibitor, single point]"
21,CCOC(=O)c1sc(NC(=O)CSc2nnc(Cc3ccccc3)o2)c(C(=O)OCC)c1C,"inconclusive: 14.6 µM [inhibitor, partial curve, poor fit]"
22,CC(=O)c1ccc(S(=O)(=O)N2CCN(c3nc4c(C)c(C)ccc4cc3C#N)CC2)cc1,"inconclusive: 16.4 µM [inhibitor, single point]"
23,O=c1c(Cl)c(NCCCO)cnn1-c1nc2ccccc2[nH]1,"inconclusive: 12.6 µM [inhibitor, single point]"
24,Cc1ccc(-c2cc(C(=O)NCCCN3CCOCC3)no2)cc1,inactive

# 3 compounds drawn at random from those above, as already listed:
row,SMILES,Potency
16,COc1ccc(-c2nc3ccccc3n2Cc2ccc(C(C)C)cc2)cc1,"inconclusive: 22.4 µM [inhibitor, single point]"
15,Cc1ccc(C(=O)COc2ccccc2C(=O)Nc2ccccc2)cc1,"inconclusive: 11.6 µM [inhibitor, partial curve, poor fit]"
23,COc1ccc(C(=O)Nn2c(SCC(=O)NCc3ccco3)nc3ccccc3c2=O)cc1,active: 0.398 µM

# More records

row,SMILES,Potency
1,COc1ccc(N2C(=O)CS/C2=N\C(=S)Nc2ccccc2)cc1,inactive
2,Cc1nn(CC(=O)NCC2CCCO2)c(=O)c2ccccc12 (configuration not stated),inactive
3,Cc1cc(C(=O)NC2CC2)c2ccccc2n1,"inconclusive: 25.1 µM [activator, single point]"
4,Cc1nccn1CC(O)Cn1c2ccccc2c2ccccc21 (configuration not stated),"inconclusive: 20 µM [inhibitor, single point]"
5,OC1(c2ccc(Br)cc2)CCNCC1,"inconclusive: 23.1 µM [inhibitor, single point]"
6,Cc1c(Cl)cccc1NC(=O)c1cc(-c2cccc(Cl)c2)on1,inactive
7,COc1ccc(Cl)cc1NC(=O)CN(C)C(=O)c1cc2c(s1)CCC(C)C2 (configuration not stated),"inconclusive: 2.51 µM [inhibitor, partial curve, poor fit]"
8,Cc1ccc(NC(=O)c2cc(S(=O)(=O)N3CCCCC3)cs2)cc1,inactive
9,Cc1ccn2c(/C=N/OCc3cccc(F)c3)c(-c3ccc(Cl)cc3)nc2c1,"inconclusive: 1.78 µM [inhibitor, partial curve]"
10,c1cc(Nc2ncnc3sc4c(c23)CCC4)ccn1,inactive
11,O=C(O)c1ccccc1NS(=O)(=O)c1ccc2ccccc2c1,inactive
12,Cc1ccccc1NC(=O)CN1CCC(C(=O)c2ccc3c(c2)OCCO3)CC1,inactive
13,CCOc1ccc(-c2cn(-c3ccc(OC)cc3)c(SC)n2)cc1,"inconclusive: 2.59 µM [activator, partial curve, poor fit]"
14,CCc1noc(-c2ccc(N3CCC(C)CC3)c([N+](=O)[O-])c2)n1,"inconclusive: 31.6 µM [activator, single point]"
15,CC(C)Oc1ccc(CNC2CCOC(C)(C)C2)cc1 (configuration not stated),"inconclusive: 0.058 µM [activator, full curve, poor fit]"
16,CC1CN(CC(O)COc2ccccc2C(C)(C)C)CC(C)O1 (configuration not stated),"inconclusive: 5.62 µM [inhibitor, partial curve, poor fit]"
17,Cc1c(C(=O)N/N=C/c2ccncc2)no[n+]1[O-],inactive
18,CC(C)(C)c1csc(N/N=C/c2cccnc2)n1,"inconclusive: 3.55 µM [activator, single point]"
19,COC(=O)c1cn(C(=O)/C=C/c2ccc(OC)c(OC)c2)c2ccccc12,"inconclusive: 8.91 µM [inhibitor, partial curve, poor fit]"
20,COC(=O)c1sc(N2C(=O)C(=O)/C(=C(/O)c3ccccc3)C2c2ccco2)nc1C (configuration not stated),"inconclusive: 35.5 µM [activator, single point]"
21,CC(=O)Nc1ccc(OCC(O)CN2C(C)CCCC2C)cc1 (configuration not stated),inactive
22,CN(C)/C=C/c1c([N+](=O)[O-])c2ccc(O)cc2n1-c1ccccc1,inactive
23,Cc1ccc(Oc2ccc(OCC(=O)NC3CCS(=O)(=O)C3)cc2)cc1 (configuration not stated),"inconclusive: 10 µM [inhibitor, partial curve]"
24,COc1ccc(CCNC(=O)CSc2cc(=O)n(C)c3ccccc23)cc1OC,inactive
